From paper doi:10.1101/2025.03.03.641251

By UniProt entry, the sequences of proteins in these tests, tags left out. Residues count along the entry.
UniProt P39060, residues 24-1754: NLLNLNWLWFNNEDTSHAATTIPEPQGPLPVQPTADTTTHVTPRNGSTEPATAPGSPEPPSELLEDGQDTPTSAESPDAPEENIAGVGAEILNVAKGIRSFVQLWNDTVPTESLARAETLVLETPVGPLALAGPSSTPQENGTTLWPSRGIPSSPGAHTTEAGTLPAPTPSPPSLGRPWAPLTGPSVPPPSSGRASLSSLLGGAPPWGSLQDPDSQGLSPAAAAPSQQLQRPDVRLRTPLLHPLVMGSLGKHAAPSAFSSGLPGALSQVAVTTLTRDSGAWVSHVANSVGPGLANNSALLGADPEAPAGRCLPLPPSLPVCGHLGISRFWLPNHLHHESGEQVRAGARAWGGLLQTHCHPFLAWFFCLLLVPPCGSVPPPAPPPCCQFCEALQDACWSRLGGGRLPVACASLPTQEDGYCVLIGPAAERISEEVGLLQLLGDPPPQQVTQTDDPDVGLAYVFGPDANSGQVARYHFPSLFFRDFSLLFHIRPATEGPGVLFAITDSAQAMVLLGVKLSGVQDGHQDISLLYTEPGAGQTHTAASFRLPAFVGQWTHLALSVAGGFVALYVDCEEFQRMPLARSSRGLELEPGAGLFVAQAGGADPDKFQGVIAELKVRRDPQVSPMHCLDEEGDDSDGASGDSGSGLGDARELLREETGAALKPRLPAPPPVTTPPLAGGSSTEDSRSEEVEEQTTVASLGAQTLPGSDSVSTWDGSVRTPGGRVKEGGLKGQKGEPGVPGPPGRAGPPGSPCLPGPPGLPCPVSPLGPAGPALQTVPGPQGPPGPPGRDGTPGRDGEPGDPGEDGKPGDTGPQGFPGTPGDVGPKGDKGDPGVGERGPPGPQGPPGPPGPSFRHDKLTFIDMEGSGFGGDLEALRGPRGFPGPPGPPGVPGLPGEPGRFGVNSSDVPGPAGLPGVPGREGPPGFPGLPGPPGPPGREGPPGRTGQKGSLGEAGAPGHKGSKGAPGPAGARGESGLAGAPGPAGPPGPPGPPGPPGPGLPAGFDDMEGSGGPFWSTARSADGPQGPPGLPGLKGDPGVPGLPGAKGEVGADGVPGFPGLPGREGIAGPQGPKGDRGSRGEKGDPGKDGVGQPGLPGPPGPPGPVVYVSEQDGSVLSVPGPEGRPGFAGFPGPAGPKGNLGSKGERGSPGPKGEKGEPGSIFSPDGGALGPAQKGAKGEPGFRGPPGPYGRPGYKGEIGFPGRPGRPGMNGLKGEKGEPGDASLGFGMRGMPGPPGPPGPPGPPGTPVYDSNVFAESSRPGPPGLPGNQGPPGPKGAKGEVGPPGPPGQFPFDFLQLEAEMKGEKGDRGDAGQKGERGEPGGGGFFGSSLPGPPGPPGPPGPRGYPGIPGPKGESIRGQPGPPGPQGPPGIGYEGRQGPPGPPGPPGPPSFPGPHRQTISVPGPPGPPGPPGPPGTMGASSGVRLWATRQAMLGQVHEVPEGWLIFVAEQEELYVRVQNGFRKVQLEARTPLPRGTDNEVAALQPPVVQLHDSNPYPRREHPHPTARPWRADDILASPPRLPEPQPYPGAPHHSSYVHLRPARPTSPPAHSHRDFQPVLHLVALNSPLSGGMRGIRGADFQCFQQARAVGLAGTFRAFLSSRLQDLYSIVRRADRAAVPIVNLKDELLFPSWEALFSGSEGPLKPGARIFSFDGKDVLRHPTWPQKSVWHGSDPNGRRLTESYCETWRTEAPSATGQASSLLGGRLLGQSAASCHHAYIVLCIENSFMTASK

How the values were obtained:
[1] = molecular target: T1, SPINK1-UltraID (human) (UniProt P00995); assay: proximity labelling
T1 sequence: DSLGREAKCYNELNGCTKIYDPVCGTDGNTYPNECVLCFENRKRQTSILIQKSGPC

[2] = molecular target: T1, SPINK1-UltraID (human); assay: proximity labelling; remark: listed apart in the source

COL18A1 (from UniProt P39060 24-1754)
binding [1]: binds | binding [2]: binds

Like-named read-outs stand apart in the source and are kept apart here. No constants are given. Whether binding was seen depends on the method and setting. In cells and extracts the contact can be indirect. Here binding means that the protein was enriched with, or labelled near, the bait; the list need not be complete.
